Measurements published in PMC3834828.
Numbering of substitutions follows the chain as printed. Results are given in words; binding and its absence hold for the method and conditions named. Some results given as binding are weak or reduced against the parent protein; the word gives no strength.

What was measured:
Assay in all cases: co-purification (glutathione-Sepharose, Heparin-Sepharose, Superose 12 gel filtration); subunits co-expressed in E. coli from a dicistronic plasmid; buffer A: 50 mM sodium phosphate pH 8, 300 mM NaCl, 2 mM β-mercaptoethanol, 10% glycerol, 0.2% CHAPS; fractions analysed by SDS-PAGE
[1] = target: T1, human MUS81 (hMUS81), wild type, as subunit of the recombinant MUS81-EME1/EME2 complexes (human) (UniProt Q96NY9)
T1 sequence: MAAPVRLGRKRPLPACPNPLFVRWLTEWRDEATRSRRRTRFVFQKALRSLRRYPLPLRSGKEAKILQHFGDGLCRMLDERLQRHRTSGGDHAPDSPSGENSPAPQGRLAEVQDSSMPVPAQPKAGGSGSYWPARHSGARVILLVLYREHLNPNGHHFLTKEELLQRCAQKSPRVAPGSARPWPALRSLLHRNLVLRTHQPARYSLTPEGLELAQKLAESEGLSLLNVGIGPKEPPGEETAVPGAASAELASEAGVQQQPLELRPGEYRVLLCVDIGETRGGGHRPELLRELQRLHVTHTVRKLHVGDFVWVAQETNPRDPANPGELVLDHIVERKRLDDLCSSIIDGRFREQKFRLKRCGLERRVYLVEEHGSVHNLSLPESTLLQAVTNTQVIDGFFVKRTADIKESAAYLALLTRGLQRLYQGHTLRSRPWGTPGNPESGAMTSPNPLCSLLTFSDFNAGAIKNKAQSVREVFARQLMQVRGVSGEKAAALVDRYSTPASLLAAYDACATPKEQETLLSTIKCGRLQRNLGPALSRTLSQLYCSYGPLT

[2] = target: T2, human MUS81 D339N (catalytically impaired) (human) (UniProt Q96NY9)
T2 sequence: T1 sequence with D339N

[3] = target: T3, human MUS81 with the WH domain (residues 128-230) deleted (human) (UniProt Q96NY9)
T3 sequence: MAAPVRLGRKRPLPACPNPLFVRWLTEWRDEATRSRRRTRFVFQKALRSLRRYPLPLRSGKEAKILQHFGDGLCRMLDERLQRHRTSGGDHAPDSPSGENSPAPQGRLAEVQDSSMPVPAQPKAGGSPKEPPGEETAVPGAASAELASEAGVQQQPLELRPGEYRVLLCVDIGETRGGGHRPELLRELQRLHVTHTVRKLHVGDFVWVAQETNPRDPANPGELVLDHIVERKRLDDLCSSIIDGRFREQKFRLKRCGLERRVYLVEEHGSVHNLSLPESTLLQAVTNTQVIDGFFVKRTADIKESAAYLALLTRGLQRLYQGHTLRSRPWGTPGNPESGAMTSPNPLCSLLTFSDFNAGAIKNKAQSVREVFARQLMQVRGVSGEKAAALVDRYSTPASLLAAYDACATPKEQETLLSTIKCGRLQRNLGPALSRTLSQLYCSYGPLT

[4] = target: T4, human MUS81 R186A/R191A (double mutation in helix α3 of the WH domain) (human) (UniProt Q96NY9)
T4 sequence: T1 sequence with R186A, R191A

Measured: binding

B1: human EME1, longer transcript variant EME1(583) (protein, UniProt Q96AY2-2 1-583)
chain: MALKKSSPSLDSGDSDSEELPTFAFLKKEPSSTKRRQPEREEKIVVVDISDCEASCPPAPELFSPPVPEIAETVTQTQPVRLLSSESEDEEEFIPLAQRLTCKFLTHKQLSPEDSSSPVKSVLDHQNNEGASCDWKKPFPKIPEVPLHDTPERSAADNKDLILDPCCQLPAYLSTCPGQSSSLAVTKTNSDILPPQKKTKPSQKVQGRGSHGCRQQRQARQKESTLRRQERKNAALVTRMKAQRPEECLKHIIVVLDPVLLQMEGGGQLLGALQTMECRCVIEAQAVPCSVTWRRRAGPSEDREDWVEEPTVLVLLRAEAFVSMIDNGKQGSLDSTMKGKETLQGFVTDITAKTAGKALSLVIVDQEKCFSLELLFFDFLPCTSAQNPPRRGKQGANKQTKKQQQRQPEASIGSMVSRVDAEEALVDLQLHTEAQAQIVQSWKELADFTCAFTKAVAEAPFKKLRDETTFSFCLESDWAGGVKVDLAGRGLALVWRRQIQQLNRVSLEMASAVVNAYPSPQLLVQAYQQCFSDKERQNLLADIQVRRGEGVTSTSRRIGPELSRRIYLQMTTLQPHLSLDSAD
binds: [1] | [2] | [3]

B2: human EME2 (protein, UniProt A4GXA9-1 1-379)
chain: MARVGPGRAGVSCQGRGRGRGGSGQRRPPTWEISDSDAEDSAGSEAAARARDPAGERRAAAEALRLLRPEQVLKRLAVCVDTAILEDAGADVLMEALEALGCECRIEPQRPARSLRWTRASPDPCPRSLPPEVWAAGEQELLLLLEPEEFLQGVATLTQISGPTHWVPWISPETTARPHLAVIGLDAYLWSRQHVSRGTQQPESPKVAGAEVAVSWPEVEEALVLLQLWANLDVLLVASWQELSRHVCAVTKALAQYPLKQYRESQAFSFCTAGRWAAGEPVARDGAGLQAAWRRQIRQFSRVSPAVADAVVTAFPSPRLLQQALEACSTERERMGLLADLPVPPSEGGRPRRVGPDLSRRICLFLTTANPDLLLDLGS
binds: all assays above
